# Measurements published in the supplement of paper PMC12067093, “Discovery and optimisation of a covalent ligand for TRIM25 and its application to targeted protein ubiquitination” (Chemical Science, 2025).
# Protein sequences, listed by entry. Tags and fused reporters are not part of them. Lines headed by an entry give the natural chain unless they say otherwise; changes in a name come on top.
# UniProt Q12805: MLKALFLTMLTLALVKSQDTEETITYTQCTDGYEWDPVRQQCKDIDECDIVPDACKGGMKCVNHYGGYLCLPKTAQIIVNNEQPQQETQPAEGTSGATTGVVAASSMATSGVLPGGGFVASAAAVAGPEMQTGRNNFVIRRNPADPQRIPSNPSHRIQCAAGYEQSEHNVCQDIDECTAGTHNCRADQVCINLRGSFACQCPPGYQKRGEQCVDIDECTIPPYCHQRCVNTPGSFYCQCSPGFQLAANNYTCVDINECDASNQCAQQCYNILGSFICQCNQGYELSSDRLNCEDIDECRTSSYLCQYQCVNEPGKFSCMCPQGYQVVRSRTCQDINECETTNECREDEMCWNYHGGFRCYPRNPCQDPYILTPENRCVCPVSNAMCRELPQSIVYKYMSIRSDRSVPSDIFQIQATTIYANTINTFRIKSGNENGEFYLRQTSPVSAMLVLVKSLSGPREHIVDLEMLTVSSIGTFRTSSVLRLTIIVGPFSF
# UniProt Q15029: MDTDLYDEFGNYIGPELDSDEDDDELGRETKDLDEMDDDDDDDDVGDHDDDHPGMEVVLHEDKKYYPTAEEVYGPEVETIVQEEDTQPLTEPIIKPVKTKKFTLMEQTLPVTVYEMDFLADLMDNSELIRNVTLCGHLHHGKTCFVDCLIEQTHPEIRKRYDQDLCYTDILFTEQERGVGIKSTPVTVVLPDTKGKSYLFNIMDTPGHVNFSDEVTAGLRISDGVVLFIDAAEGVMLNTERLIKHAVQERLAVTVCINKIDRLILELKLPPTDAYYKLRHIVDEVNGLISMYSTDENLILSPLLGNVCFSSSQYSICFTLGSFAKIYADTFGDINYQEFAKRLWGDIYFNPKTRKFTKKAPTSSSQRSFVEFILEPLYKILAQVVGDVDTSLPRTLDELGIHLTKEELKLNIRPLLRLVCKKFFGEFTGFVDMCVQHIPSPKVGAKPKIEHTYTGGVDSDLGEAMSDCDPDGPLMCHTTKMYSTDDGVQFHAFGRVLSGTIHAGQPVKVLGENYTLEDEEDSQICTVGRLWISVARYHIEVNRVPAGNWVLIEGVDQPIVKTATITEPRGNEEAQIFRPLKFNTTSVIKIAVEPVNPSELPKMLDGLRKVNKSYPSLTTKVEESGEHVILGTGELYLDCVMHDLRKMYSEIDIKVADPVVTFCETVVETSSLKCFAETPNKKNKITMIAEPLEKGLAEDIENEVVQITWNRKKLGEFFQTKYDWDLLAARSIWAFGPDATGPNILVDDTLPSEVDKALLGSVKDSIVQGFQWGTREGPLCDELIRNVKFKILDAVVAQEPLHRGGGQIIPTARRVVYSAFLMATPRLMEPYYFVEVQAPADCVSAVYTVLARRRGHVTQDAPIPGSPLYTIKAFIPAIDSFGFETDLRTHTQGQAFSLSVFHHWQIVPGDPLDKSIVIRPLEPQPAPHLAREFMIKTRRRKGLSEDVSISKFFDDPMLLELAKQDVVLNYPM
# UniProt O75530, whole entry, looked up: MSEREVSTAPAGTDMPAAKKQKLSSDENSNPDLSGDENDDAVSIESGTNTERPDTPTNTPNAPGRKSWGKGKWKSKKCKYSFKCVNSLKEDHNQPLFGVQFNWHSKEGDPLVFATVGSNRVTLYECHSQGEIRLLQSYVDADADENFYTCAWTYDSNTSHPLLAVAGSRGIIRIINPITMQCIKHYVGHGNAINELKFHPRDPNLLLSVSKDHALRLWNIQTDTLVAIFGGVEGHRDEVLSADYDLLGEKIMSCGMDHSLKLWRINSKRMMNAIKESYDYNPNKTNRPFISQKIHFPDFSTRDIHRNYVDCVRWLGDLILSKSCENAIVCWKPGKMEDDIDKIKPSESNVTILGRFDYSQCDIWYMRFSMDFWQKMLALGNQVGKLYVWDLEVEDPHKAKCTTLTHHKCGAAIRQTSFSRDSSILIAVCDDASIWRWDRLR
# UniProt P05198, whole entry, looked up: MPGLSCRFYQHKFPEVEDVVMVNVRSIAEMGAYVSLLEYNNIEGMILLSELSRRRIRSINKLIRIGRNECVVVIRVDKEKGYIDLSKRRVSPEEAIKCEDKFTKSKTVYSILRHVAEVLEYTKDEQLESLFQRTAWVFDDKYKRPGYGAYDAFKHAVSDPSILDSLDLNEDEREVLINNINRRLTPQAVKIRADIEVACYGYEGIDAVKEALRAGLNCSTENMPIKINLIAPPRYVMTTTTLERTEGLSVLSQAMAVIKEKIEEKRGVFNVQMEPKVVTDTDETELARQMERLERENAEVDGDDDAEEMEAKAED
# UniProt P57772: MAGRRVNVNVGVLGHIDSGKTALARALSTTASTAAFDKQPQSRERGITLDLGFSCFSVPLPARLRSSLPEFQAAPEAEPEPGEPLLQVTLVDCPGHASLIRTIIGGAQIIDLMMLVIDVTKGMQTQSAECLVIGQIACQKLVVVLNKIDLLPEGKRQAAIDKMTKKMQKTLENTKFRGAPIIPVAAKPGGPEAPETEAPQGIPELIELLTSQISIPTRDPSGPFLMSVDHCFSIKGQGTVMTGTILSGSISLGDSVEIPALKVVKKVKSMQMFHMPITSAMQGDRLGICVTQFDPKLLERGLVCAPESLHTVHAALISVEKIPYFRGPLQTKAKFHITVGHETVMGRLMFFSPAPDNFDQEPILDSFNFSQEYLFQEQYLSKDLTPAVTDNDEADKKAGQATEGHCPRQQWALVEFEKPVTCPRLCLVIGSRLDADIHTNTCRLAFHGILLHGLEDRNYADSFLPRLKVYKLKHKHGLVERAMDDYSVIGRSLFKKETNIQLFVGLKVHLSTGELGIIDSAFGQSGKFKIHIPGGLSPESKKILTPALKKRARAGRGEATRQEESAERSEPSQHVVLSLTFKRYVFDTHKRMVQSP
# UniProt Q9NR50: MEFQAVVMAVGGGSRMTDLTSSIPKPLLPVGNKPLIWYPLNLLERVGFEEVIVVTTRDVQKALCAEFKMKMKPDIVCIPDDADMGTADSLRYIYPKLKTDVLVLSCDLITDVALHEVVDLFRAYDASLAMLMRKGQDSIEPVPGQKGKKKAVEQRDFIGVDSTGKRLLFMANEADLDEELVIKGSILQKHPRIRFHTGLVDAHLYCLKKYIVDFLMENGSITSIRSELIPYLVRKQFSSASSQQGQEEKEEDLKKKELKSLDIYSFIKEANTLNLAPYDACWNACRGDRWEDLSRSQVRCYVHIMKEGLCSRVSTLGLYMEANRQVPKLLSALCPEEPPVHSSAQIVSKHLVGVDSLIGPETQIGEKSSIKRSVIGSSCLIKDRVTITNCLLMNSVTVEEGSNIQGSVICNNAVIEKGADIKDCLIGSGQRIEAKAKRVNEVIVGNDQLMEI
# UniProt Q14152, whole entry, looked up: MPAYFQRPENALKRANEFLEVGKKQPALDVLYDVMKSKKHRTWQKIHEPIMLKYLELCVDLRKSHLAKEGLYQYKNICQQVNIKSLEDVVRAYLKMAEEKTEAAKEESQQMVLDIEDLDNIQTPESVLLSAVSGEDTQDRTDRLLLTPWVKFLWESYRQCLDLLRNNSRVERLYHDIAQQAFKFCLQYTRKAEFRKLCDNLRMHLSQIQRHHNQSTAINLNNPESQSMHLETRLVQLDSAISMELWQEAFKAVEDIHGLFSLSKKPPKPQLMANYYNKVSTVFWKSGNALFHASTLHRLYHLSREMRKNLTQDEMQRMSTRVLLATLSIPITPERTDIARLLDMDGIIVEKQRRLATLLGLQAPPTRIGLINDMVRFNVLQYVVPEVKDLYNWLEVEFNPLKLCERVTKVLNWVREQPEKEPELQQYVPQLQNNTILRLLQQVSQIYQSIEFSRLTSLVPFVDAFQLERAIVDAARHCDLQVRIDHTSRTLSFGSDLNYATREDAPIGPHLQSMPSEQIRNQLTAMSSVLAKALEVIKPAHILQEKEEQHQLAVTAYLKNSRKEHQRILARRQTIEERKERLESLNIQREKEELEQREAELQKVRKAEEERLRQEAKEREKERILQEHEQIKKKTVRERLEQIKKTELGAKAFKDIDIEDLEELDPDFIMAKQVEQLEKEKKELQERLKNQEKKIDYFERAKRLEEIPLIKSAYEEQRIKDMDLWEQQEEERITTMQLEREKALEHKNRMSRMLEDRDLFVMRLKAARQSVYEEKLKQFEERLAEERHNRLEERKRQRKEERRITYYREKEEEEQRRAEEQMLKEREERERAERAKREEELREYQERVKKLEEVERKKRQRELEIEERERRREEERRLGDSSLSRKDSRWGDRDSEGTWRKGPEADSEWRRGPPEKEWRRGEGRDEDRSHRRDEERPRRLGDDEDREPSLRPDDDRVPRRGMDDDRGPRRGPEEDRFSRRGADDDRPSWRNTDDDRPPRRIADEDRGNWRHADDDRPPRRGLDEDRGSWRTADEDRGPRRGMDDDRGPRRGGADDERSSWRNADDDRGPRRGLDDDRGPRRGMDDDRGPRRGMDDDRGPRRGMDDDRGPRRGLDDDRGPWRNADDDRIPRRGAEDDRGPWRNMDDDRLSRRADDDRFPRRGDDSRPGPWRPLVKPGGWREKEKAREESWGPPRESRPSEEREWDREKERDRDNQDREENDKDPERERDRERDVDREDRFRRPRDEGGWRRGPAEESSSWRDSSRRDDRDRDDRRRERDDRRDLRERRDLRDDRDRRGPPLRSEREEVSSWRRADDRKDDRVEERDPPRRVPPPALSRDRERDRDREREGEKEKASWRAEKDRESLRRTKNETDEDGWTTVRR
# UniProt Q7Z2Z2: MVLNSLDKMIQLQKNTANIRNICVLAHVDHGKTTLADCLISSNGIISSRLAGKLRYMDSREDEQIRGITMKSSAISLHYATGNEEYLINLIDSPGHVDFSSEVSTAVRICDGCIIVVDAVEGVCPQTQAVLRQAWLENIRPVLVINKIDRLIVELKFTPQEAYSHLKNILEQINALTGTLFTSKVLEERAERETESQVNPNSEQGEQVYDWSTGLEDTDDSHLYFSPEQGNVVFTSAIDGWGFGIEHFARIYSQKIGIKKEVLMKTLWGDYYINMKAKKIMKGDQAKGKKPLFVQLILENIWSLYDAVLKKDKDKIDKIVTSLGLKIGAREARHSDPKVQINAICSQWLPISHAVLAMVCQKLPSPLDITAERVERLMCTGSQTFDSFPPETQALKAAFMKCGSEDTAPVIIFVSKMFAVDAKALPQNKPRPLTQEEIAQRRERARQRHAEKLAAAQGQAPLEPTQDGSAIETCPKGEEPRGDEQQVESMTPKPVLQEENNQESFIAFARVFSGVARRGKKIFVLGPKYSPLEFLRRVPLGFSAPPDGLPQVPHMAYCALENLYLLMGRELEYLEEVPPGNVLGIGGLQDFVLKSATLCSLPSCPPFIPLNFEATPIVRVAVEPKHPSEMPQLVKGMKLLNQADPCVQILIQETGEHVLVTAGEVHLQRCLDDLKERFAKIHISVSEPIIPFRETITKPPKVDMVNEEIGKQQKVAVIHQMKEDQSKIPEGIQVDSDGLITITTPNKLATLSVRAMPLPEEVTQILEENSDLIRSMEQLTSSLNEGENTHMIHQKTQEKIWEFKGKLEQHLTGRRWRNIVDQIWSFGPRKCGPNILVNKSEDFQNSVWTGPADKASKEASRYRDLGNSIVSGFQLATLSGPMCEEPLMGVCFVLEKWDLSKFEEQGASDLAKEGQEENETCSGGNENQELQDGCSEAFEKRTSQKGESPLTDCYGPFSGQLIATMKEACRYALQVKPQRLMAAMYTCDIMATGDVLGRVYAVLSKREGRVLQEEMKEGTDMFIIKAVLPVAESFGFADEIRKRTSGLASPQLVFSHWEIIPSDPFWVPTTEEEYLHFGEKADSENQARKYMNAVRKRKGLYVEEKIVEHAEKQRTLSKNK
# UniProt P19525: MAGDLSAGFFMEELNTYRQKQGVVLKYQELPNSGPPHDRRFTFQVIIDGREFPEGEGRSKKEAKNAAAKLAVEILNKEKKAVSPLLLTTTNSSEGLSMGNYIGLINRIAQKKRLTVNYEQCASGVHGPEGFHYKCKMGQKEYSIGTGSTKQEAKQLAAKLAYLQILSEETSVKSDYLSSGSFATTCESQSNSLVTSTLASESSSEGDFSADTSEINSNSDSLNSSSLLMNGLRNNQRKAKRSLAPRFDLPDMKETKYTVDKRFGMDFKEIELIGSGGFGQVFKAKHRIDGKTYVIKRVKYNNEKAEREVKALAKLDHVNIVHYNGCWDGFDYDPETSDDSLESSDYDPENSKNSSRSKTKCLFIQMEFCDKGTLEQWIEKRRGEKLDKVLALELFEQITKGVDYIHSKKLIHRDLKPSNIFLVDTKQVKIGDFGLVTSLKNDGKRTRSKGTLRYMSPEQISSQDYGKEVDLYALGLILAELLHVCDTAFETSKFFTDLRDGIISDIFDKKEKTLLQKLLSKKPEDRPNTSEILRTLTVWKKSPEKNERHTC
# UniProt P47813, whole entry, looked up: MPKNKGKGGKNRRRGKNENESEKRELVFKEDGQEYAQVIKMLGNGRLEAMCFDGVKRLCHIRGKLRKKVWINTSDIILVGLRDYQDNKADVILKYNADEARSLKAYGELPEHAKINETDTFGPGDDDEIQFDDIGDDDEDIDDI
# Some of the results follow.
# Compound: CC1Cc2ccccc2N1C(=O)C1CCCN(C1)C(=O)CCl (mixture of isomers) [TRIM25 ligand 11 (diastereomer mixture)]
# Test: probe-labelled cysteine peptide fold change vs DMSO (competition) (log2 fold change); higher = less target engagement (more negative = stronger competition)
# Settings: 10 µM; THP-1; incubation time: 4 h
# 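Further: competitive chemoproteomic profiling in live THP-1 cells with an iodoacetamide desthiobiotin (IA-DTB) probe, comparing probe-labelled peptide intensities in compound-treated cells against DMSO-treated controls.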
row,Target,probe-labelled cysteine peptide fold change
1,EHMT1_Q9H9B1_58_QAGEAHMAADGETNGSCENSDASSHANAAK (UniProt Q9H9B1),-0.0747
2,EFEMP1_Q12805_190_ADQVCINLR (UniProt Q12805),0.363
3,EFTUD2_Q15029_144+148_TCFVDCLIEQTHPEIR (UniProt Q15029),-0.043
4,EED_O75530_361_FDYSQCDIWYMR (UniProt O75530),0.222
5,EIF2B1_Q14232_218_IGTNQMAVCAK (UniProt Q14232),-0.0309
6,EHMT1_Q9H9B1_842_DAEGSTCLHLAAK (UniProt Q9H9B1),0.0107
7,EIF2S1_P05198_98_VSPEEAIKCEDK (UniProt P05198),-0.364
8,EFEMP1_Q12805_70_CVNHYGGYLCLPK (UniProt Q12805),0.26
9,EHMT1_Q9H9B1_1105_LLPEFNMAEPPLIFECNHACSCWR (UniProt Q9H9B1),-0.00285
10,ECPAS_Q5VYK3_1420_SCAFAMGHLVR (UniProt Q5VYK3),-0.0415
11,EEF1A2_Q05639_411_SGDAAIVEMVPGKPMCVESFSQYPPLGR (UniProt Q05639),-0.0284
12,EEF2_P13639_369_CELLYEGPPDDEAAMGIK (UniProt P13639),-0.0902
13,EEFSEC_P57772_55_GITLDLGFSCFSVPLPAR (UniProt P57772),-0.119
14,EHMT1_Q9H9B1_575_APLLVLCEDHR (UniProt Q9H9B1),0.0485
15,EED_O75530_401_CTTLTHHK (UniProt O75530),-0.0891
16,EIF2S2_P20042_226_KTSFVNFTDICK (UniProt P20042),-0.15
17,EFTUD2_Q15029_674_CFAETPNK (UniProt Q15029),0.0899
18,ECI2_O75521_282_ATFHTPFSHLGQSPEGCSSYTFPK (UniProt O75521),0.307
19,EIF2B3_Q9NR50_300_CYVHIMK (UniProt Q9NR50),-0.0123

row,Target,probe-labelled cysteine peptide fold change
1,EHMT1_Q9H9B1_978_EGETPLQCASLNSQVWSALQMSK (UniProt Q9H9B1),-0.0447
2,EIF3A_Q14152_478_HCDLQVR (UniProt Q14152),0.0221
3,EEF1AKMT1_Q8WVE0_149_IAAHSFDIVIADPPYLSEECLR (UniProt Q8WVE0),-0.00924
4,EIF2S3_P41091_101_LDDPSCPRPECYR (UniProt P41091),0.0907
5,EIF3A_Q14152_198_KLCDNLR (UniProt Q14152),-0.0142
6,EIF2A_Q9BY44_366_PVASDSTYFAWCPDGEHILTATCAPR (UniProt Q9BY44),0.182
7,EFL1_Q7Z2Z2_23_NICVLAHVDHGK (UniProt Q7Z2Z2),0.0489
8,EED_O75530_126_VTLYECHSQGEIR (UniProt O75530),0.222
9,EHBP1L1_Q8N3D4_346_ETQAQACPQEGTEAHGAR (UniProt Q8N3D4),0.0614
10,EIF2AK2_P19525_369_CLFIQMEFCDK (UniProt P19525),-0.0113
11,ECM1_Q16610_151_EGTPAPFGDQSHPEPESWNAAQHCQQDR (UniProt Q16610),0.321
12,EEF2_P13639_466_YVEPIEDVPCGNIVGLVGVDQFLVK (UniProt P13639),0.0592
13,ECH1_Q13011_182_CPKPVIAAVHGGCIGGGVDLVTACDIR (UniProt Q13011),-0.0944
14,EEF1A1_P68104_363_GNVAGDSKNDPPMEAAGFTAQVIILNHPGQISAGYAPVLDCHTAHIACK (UniProt P68104),-0.319
15,EIF2A_Q9BY44_377_LISKPVASDSTYFAWCPDGEHILTATCAPR (UniProt Q9BY44),-0.14
16,EIF2B3_Q9NR50_424_DCLIGSGQR (UniProt Q9NR50),-0.00481
17,EGFL7_Q9UHF1_267_IDSLSEQISFLEEQLGSCSCK (UniProt Q9UHF1),-0.0508
18,EIF1AX_P47813_51_LEAMCFDGVKR (UniProt P47813),-0.0826

# Nothing new here: entries from further up.
row,Target,probe-labelled cysteine peptide fold change
6,EIF2A_Q9BY44_366_PVASDSTYFAWCPDGEHILTATCAPR (UniProt Q9BY44),0.182
7,EFL1_Q7Z2Z2_23_NICVLAHVDHGK (UniProt Q7Z2Z2),0.0489
